According to patent US11065203B2, “Liposomal compositions and uses of same” (Technion Research & Development Foundation Limited, priority 2009, dated 2021):

Experiment: Proteomics analysis (trypsin digest, LC-MS/MS) of hMSC ghosts and derived CDLs, conditioned or unconditioned by PC3 medium
Set-up: species or system human
Conditions: LC-MS/MS peak area per protein; for Ratio of expression Cond. CDLs/Cond. Ghosts: CDLs derived from conditioned hMSCs versus conditioned ghosts; for Ratio of expression Cond Ghosts/Ghosts: hMSC ghosts conditioned by PC3 medium versus unconditioned ghosts

| Molecule | Ratio of expression Cond. CDLs/Cond. Ghosts [%] | Ratio of expression Cond Ghosts/Ghosts [%] |
| --- | --- | --- |
| Q969H8 (protein, UniProt Q969H8 1-173, looked up, full-length) MAAPSGGWNGVGASLWAALLLGAVALRPAEAVSEPTTVAFDVRPGGVVHSFSHNVGPGDKYTCMFTYASQGGTNEQWQMSLGTSEDHQHFTCTIWRPQGKSYLYFTQFKAEVRGAEIEYAMAYSKAAFERESDVPLKTEEFEVTKTAVAHRPGAFKAELSKLVIVAKASRTEL | 3 | 100 |
| P20020 (protein, UniProt P20020 1-1220, looked up, full-length) MGDMANNSVAYSGVKNSLKEANHDGDFGITLAELRALMELRSTDALRKIQESYGDVYGICTKLKTSPNEGLSGNPADLERREAVFGKNFIPPKKPKTFLQLVWEALQDVTLIILEIAAIVSLGLSFYQPPEGDNALCGEVSVGEEEGEGETGWIEGAAILLSVVCVVLVTAFNDWSKEKQFRGLQSRIEQEQKFTVIRGGQVIQIPVADITVGDIAQVKYGDLLPADGILIQGNDLKIDESSLTGESDHVKKSLDKDPLLLSGTHVMEGSGRMVVTAVGVNSQTGIIFTLLGAGGEEEEKKDEKKKEKKNKKQDGAIENRNKAKAQDGAAMEMQPLKSEEGGDGDEKDKKKANLPKKEKSVLQGKLTKLAVQIGKAGLLMSAITVIILVLYFVIDTFWVQKRPWLAECTPIYIQYFVKFFIIGVTVLVVAVPEGLPLAVTISLAYSVKKMMKDNNLVRHLDACETMGNATAICSDKTGTLTMNRMTVVQAYINEKHYKKVPEPEAIPPNILSYLVTGISVNCAYTSKILPPEKEGGLPRHVGNKTECALLGLLLDLKRDYQDVRNEIPEEALYKVYTFNSVRKSMSTVLKNSDGSYRIFSKGASEIILKKCFKILSANGEAKVFRPRDRDDIVKTVIEPMASEGLRTICLAFRDFPAGEPEPEWDNENDIVTGLTCIAVVGIEDPVRPEVPDAIKKCQRAGITVRMVTGDNINTARAIATKCGILHPGEDFLCLEGKDFNRRIRNEKGEIEQERIDKIWPKLRVLARSSPTDKHTLVKGIIDSTVSDQRQVVAVTGDGTNDGPALKKADVGFAMGIAGTDVAKEASDIILTDDNFTSIVKAVMWGRNVYDSISKFLQFQLTVNVVAVIVAFTGACITQDSPLKAVQMLWVNLIMDTLASLALATEPPTESLLLRKPYGRNKPLISRTMMKNILGHAFYQLVVVFTLLFAGEKFFDIDSGRNAPLHAPPSEHYTIVFNTFVLMQLFNEINARKIHGERNVFEGIFNNAIFCTIVLGTFVVQIIIVQFGGKPFSCSELSIEQWLWSIFLGMGTLLWGQLISTIPTSRLKFLKEAGHGTQKEEIPEEELAEDVEEIDHAERELRRGQILWFRGLNRIQTQIRVVNAFRSSLYEGLEKPESRSSIHNFMTHPEFRIEDSEPHIPLIDDTDAEDDAPTKRNSSPPPSPNKNNNAVDSGIHLTIEMNKSATSSSPGSPLHSLETSL | 2 | 100 |
| P61916 (protein, UniProt P61916 1-151, looked up, full-length) MRFLAATFLLLALSTAAQAEPVQFKDCGSVDGVIKEVNVSPCPTQPCQLSKGQSYSVNVTFTSNIQSKSSKAVVHGILMGVPVPFPIPEPDGCKSGINCPIQKDKTYSYLNKLPVKSEYPSIKLVVEWQLQDDKNQSLFCWEIPVQIVSHL | 2 | 195 |
| P13804 (protein, UniProt P13804 1-333, looked up, full-length) MFRAAAPGQLRRAASLLRFQSTLVIAEHANDSLAPITLNTITAATRLGGEVSCLVAGTKCDKVAQDLCKVAGIAKVLVAQHDVYKGLLPEELTPLILATQKQFNYTHICAGASAFGKNLLPRVAAKLEVAPISDIIAIKSPDTFVRTIYAGNALCTVKCDEKVKVFSVRGTSFDAAATSGGSASSEKASSTSPVEISEWLDQKLTKSDRPELTGAKVVVSGGRGLKSGENFKLLYDLADQLHAAVGASRAAVDAGFVPNDMQVGQTGKIVAPELYIAVGISGAIQHLAGMKDSKTIVAINKDPEAPIFQVADYGIVADLFKVVPEMTEILKKK | 3 | 100 |
| P07954 (protein, UniProt P07954 1-510, looked up, full-length) MYRALRLLARSRPLVRAPAAALASAPGLGGAAVPSFWPPNAARMASQNSFRIEYDTFGELKVPNDKYYGAQTVRSTMNFKIGGVTERMPTPVIKAFGILKRAAAEVNQDYGLDPKIANAIMKAADEVAEGKLNDHFPLVVWQTGSGTQTNMNVNEVISNRAIEMLGGELGSKIPVHPNDHVNKSQSSNDTFPTAMHIAAAIEVHEVLLPGLQKLHDALDAKSKEFAQIIKIGRTHTQDAVPLTLGQEFSGYVQQVKYAMTRIKAAMPRIYELAAGGTAVGTGLNTRIGFAEKVAAKVAALTGLPFVTAPNKFEALAAHDALVELSGAMNTTACSLMKIANDIRFLGSGPRSGLGELILPENEPGSSIMPGKVNPTQCEAMTMVAAQVMGNHVAVTVGGSNGHFELNVFKPMMIKNVLHSARLLGDASVSFTENCVVGIQANTERINKLMNESLMLVTALNPHIGYDKAAKIAKTAHKNGSTLKETAIELGYLTAEQFDEWVKPKDMLGPK | 3 | 100 |
| Q14103 (protein, UniProt Q14103 1-355, looked up, full-length) MSEEQFGGDGAAAAATAAVGGSAGEQEGAMVAATQGAAAAAGSGAGTGGGTASGGTEGGSAESEGAKIDASKNEEDEGHSNSSPRHSEAATAQREEWKMFIGGLSWDTTKKDLKDYFSKFGEVVDCTLKLDPITGRSRGFGFVLFKESESVDKVMDQKEHKLNGKVIDPKRAKAMKTKEPVKKIFVGGLSPDTPEEKIREYFGGFGEVESIELPMDNKTNKRRGFCFITFKEEEPVKKIMEKKYHNVGLSKCEIKVAMSKEQYQQQQQWGSRGGFAGRARGRGGGPSQNWNQGYSNYWNQGYGNYGYNSQGYGGYGGYDYTGYNNYYGYGDYSNQQSGYGKVSRRGGHQNSYKPY | 0 | 198 |
| Q9UIJ7 (protein, UniProt Q9UIJ7 1-227, looked up, full-length) MGASARLLRAVIMGAPGSGKGTVSSRITTHFELKHLSSGDLLRDNMLRGTEIGVLAKAFIDQGKLIPDDVMTRLALHELKNLTQYSWLLDGFPRTLPQAEALDRAYQIDTVINLNVPFEVIKQRLTARWIHPASGRVYNIEFNPPKTVGIDDLTGEPLIQREDDKPETVIKRLKAYEDQTKPVLEYYQKKGVLETFSGTETNKIWPYVYAFLQTKVPQRSQKASVTP | 3 | 100 |
| O14983 (protein, UniProt O14983 1-1001, looked up, full-length) MEAAHAKTTEECLAYFGVSETTGLTPDQVKRNLEKYGLNELPAEEGKTLWELVIEQFEDLLVRILLLAACISFVLAWFEEGEETITAFVEPFVILLILIANAIVGVWQERNAENAIEALKEYEPEMGKVYRADRKSVQRIKARDIVPGDIVEVAVGDKVPADIRILAIKSTTLRVDQSILTGESVSVIKHTEPVPDPRAVNQDKKNMLFSGTNIAAGKALGIVATTGVGTEIGKIRDQMAATEQDKTPLQQKLDEFGEQLSKVISLICVAVWLINIGHFNDPVHGGSWFRGAIYYFKIAVALAVAAIPEGLPAVITTCLALGTRRMAKKNAIVRSLPSVETLGCTSVICSDKTGTLTTNQMSVCKMFIIDKVDGDICLLNEFSITGSTYAPEGEVLKNDKPVRPGQYDGLVELATICALCNDSSLDFNEAKGVYEKVGEATETALTTLVEKMNVFNTDVRSLSKVERANACNSVIRQLMKKEFTLEFSRDRKSMSVYCSPAKSSRAAVGNKMFVKGAPEGVIDRCNYVRVGTTRVPLTGPVKEKIMAVIKEWGTGRDTLRCLALATRDTPPKREEMVLDDSARFLEYETDLTFVGVVGMLDPPRKEVTGSIQLCRDAGIRVIMITGDNKGTAIAICRRIGIFGENEEVADRAYTGREFDDLPLAEQREACRRACCFARVEPSHKSKIVEYLQSYDEITAMTGDGVNDAPALKKAEIGIAMGSGTAVAKTASEMVLADDNFSTIVAAVEEGRAIYNNMKQFIRYLISSNVGEVVCIFLTAALGLPEALIPVQLLWVNLVTDGLPATALGFNPPDLDIMDRPPRSPKEPLISGWLFFRYMAIGGYVGAATVGAAAWWFLYAEDGPHVNYSQLTHFMQCTEDNTHFEGIDCEVFEAPEPMTMALSVLVTIEMCNALNSLSENQSLLRMPPWVNIWLLGSICLSMSLHFLILYVDPLPMIFKLRALDLTQWLMVLKISLPVIGLDEILKFVARNYLEDPEDERRK | 2 | 100 |
| Q9NYL4 (protein, UniProt Q9NYL4 1-201, looked up, full-length) MTLRPSLLPLHLLLLLLLSAAVCRAEAGLETESPVRTLQVETLVEPPEPCAEPAAFGDTLHIHYTGSLVDGRIIDTSLTRDPLVIELGQKQVIPGLEQSLLDMCVGEKRRAIIPSHLAYGKRGFPPSVPADAVVQYDVELIALIRANYWLKLVKGILPLVGMAMVPALLGLIGYHLYRKANRPKVSKKKLKEEKRNKSKKK | 2 | 100 |
| Q14697 (protein, UniProt Q14697 1-944, looked up, full-length) MAAVAAVAARRRRSWASLVLAFLGVCLGITLAVDRSNFKTCEESSFCKRQRSIRPGLSPYRALLDSLQLGPDSLTVHLIHEVTKVLLVLELQGLQKNMTRFRIDELEPRRPRYRVPDVLVADPPIARLSVSGRDENSVELTMAEGPYKIILTARPFRLDLLEDRSLLLSVNARGLLEFEHQRAPRVSQGSKDPAEGDGAQPEETPRDGDKPEETQGKAEKDEPGAWEETFKTHSDSKPYGPMSVGLDFSLPGMEHVYGIPEHADNLRLKVTEGGEPYRLYNLDVFQYELYNPMALYGSVPVLLAHNPHRDLGIFWLNAAETWVDISSNTAGKTLFGKMMDYLQGSGETPQTDVRWMSETGIIDVFLLLGPSISDVFRQYASLTGTQALPPLFSLGYHQSRWNYRDEADVLEVDQGFDDHNLPCDVIWLDIEHADGKRYFTWDPSRFPQPRTMLERLASKRRKLVAIVDPHIKVDSGYRVHEELRNLGLYVKTRDGSDYEGWCWPGSAGYPDFTNPTMRAWWANMFSYDNYEGSAPNLFVWNDMNEPSVFNGPEVTMLKDAQHYGGWEHRDVHNIYGLYVHMATADGLRQRSGGMERPFVLARAFFAGSQRFGAVWTGDNTAEWDHLKISIPMCLSLGLVGLSFCGADVGGFFKNPEPELLVRWYQMGAYQPFFRAHAHLDTGRREPWLLPSQHNDIIRDALGQRYSLLPFWYTLLYQAHREGIPVMRPLWVQYPQDVTTFNIDDQYLLGDALLVHPVSDSGAHGVQVYLPGQGEVWYDIQSYQKHHGPQTLYLPVTLSSIPVFQRGGTIVPRWMRVRRSSECMKDDPITLFVALSPQGTAQGELFLDDGHTFNYQTRQEFLLRRFSFSGNTLVSSSADPEGHFETPIWIERVVIIGAGKPAAVVLQTKGSPESRLSFQHDPETSVLVLRKPGINVASDWSIHLR | 3 | 100 |
